The values below come from PubChem BioAssay AID445 (National Center for Advancing Translational Sciences (NCATS), 2006).

The structures appear in SMILES notation. The list shows a part of the results. Further columns of the screen follow, without active or inactive calls. The list favours compounds with an active or inconclusive main result. The note in brackets gives the kind of curve behind each potency; many fits are weak.

The assay can be described thus: IkB Signaling. The note with it: ABC-DLBCL IkBa-CBG/CBR dual luciferase ratio (green luciferase fused to IkBa over red control in OCI-Ly3 lymphoma cells), 4 h; measured here: control luc red channel unless noted. In a few lines: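 In this assay, an IκBα–CBG68 fusion accumulates when IKK-driven degradation is blocked; native CBR normalizes for cell number. OCI-Ly3 cells were treated 4 h with compound and doxycycline, then green and red light read after Chroma-Glo addition.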
In the case of `O=C(NC1CCCCC1)c1ccc(CSc2nc3ccncc3n2Cc2cccc(F)c2)cc1`, the AC50 is 25.1 µM [falling, single point]. To `Cc1ccc2cccc(SCC(=O)N3CCOCC3)c2n1` belongs 20 µM [rising, partial curve] [measured here: IkB-luc green channel]; to `CSc1ncccc1C(=O)OCC(=O)Nc1cc(C(F)(F)F)ccc1N1CCOCC1`, 39.8 µM [falling, single point]; to `COc1cc(C2Nc3ccc4ncccc4c3C3=C2C(=O)CCC3)ccc1O` (configuration not stated), 31.6 µM [rising, partial curve] [measured here: IkB-luc green channel]. In the case of `CCc1nn(CC(=O)N2CCN(c3cccc(C)c3)C(C)C2)c(=O)c2cc3sccc3n12` (configuration not stated), the AC50 was 15.8 µM [falling, partial curve]. As for `COc1ccccc1C(=O)NC1(C(F)(F)F)NC(=O)N(CCc2ccccc2)C1=O` (configuration not stated), the AC50 was 15.8 µM [falling, partial curve]. On to `O=C(CSc1nnc2scc(-c3ccc(Cl)cc3)n12)Nc1ccc(F)cc1`, for which the AC50 is 3.16 µM [falling, single point].

On to `Cc1nn(Cc2ccc(C(=O)NC3CCCCC3)o2)c(C)c1Br`, for which the concentration at half-maximal activity (AC50) was 20 µM [falling, partial curve].

As for `Cc1ccc(Nc2c(-c3cccnc3)nc3ccc(C)cn23)cc1`, the half-maximal activity concentration (AC50) was 31.6 µM [falling, partial curve].

As to `COc1cccc(C2=CC(c3ccccc3F)n3ncc(C(=O)Nc4ccc(F)cc4)c3N2)c1` (configuration not stated), the AC50 is 15.8 µM [falling, partial curve]. As for `COc1cccc(NC(=O)CSc2cc(C)c3ccccc3n2)c1`, the concentration at half-maximal activity (AC50) is 7.94 µM [falling, full curve]. As for `COc1ccc(OCC(=O)N2CCN(C(=O)COc3ccc(Br)cc3)CC2)cc1`, the AC50 was 12.6 µM [falling, partial curve]. In the case of `O=C(Cn1ncc2ccsc2c1=O)N1CCN(c2ccc(Cl)cc2)CC1`, the concentration at half-maximal activity (AC50) was 25.1 µM [falling, partial curve]. `Cc1ccc2c(Sc3ccc(Cl)cc3)c(C(=O)N3CCCCC3)[nH]c2c1`: the AC50 was 39.8 µM [falling, single point]. In the case of `CCCOc1ccc(NC(=O)CC2C(=O)N(c3cccc(OC)c3)C(=O)N2CCc2ccncc2)cc1` (configuration not stated), the half-maximal activity concentration (AC50) is 15.8 µM [falling, single point].

Turning to `Nc1nn(S(=O)(=O)c2cccc3nsnc23)cc1-c1ccc(Br)cc1`, the AC50 is 6.31 µM [falling, partial curve]. To `CS(=O)(=O)c1ccc2nc(NC(=O)c3cccs3)sc2c1` belongs 5.01 µM [falling, partial curve]; to `O=C(Nc1nc(-c2ccco2)cs1)c1ccccc1`, 12.6 µM [falling, partial curve]. Take `CCS(=O)(=O)c1ccc(C(=O)N2CCN(c3nc4c(OC)ccc(C)c4s3)CC2)cc1`: the AC50 was 39.8 µM [falling, single point]. Consider `CCOC(=O)c1nnn(-c2nonc2-n2cccc2)c1CN1CCC(C)CC1`, for which the AC50 was 20 µM [falling, partial curve]. In the case of `O=C(Nc1nc(-c2ccc3c(c2)OCO3)cs1)c1ccncc1`, the AC50 is 7.94 µM [falling, full curve, poor fit]. For the compound `C1=C(c2ccccc2)CCN(c2nc3ccccc3n3cnnc23)C1`, the AC50 is 15.8 µM [falling, partial curve]. With `Cn1cc(-c2cc3n(n2)CCC(=O)N3CCCC(=O)Nc2ccc(Cl)cc2)c2ccccc21`, the AC50 was 3.16 µM [falling, partial curve, poor fit]. Take `O=C1CC(c2ccccc2)Sc2ccccc2N1Cc1ccccc1F` (configuration not stated): the half-maximal activity concentration (AC50) was 12.6 µM [falling, partial curve].

On to `Cc1c(Nc2ncnc3nc[nH]c23)c(=O)n(-c2ccccc2)n1C`, for which the AC50 was 10 µM [falling, partial curve]. Regarding `COc1ccc(NC(=O)Cn2ccn(-c3ccc(F)c(F)c3)c(=O)c2=O)cc1Cl`, the concentration at half-maximal activity (AC50) is 7.94 µM [falling, full curve, poor fit]. For `COc1ccc(CNC(=O)CCC2N=C3c4ccccc4N=C(SCC(=O)NCCc4ccc(OC)c(OC)c4)N3C2=O)cc1` (configuration not stated), the AC50 was 7.94 µM [rising, single point]. In the case of `O=c1oc2ccccc2c(N2CCCCC2)c1CN1CCCCC1`, the AC50 is 5.01 µM [falling, partial curve]. On to `CC(=O)N1CCCc2cc(S(=O)(=O)N(C)CC(=O)Nc3cccc(Cl)c3C)ccc21`, for which the AC50 is 25.1 µM [falling, single point]. In the case of `Cc1cc(N2CCOCC2)n2nc(C)c(-c3ccccc3)c2n1`, the half-maximal activity concentration (AC50) was 2 µM [rising, full curve, poor fit].

Consider `Cn1c(=O)c2cc(S(=O)(=O)NC(Cc3ccccc3)C(=O)Nc3ccc(F)cc3)ccc2n(C)c1=O` (configuration not stated), for which the AC50 was 25.1 µM [falling, partial curve]. To `Cc1ccccc1Cn1c2ccccc2c2cnn(CC(=O)NCc3cccc(Cl)c3)c(=O)c21` belongs 0.794 µM [falling, full curve]; to `COCCN(CCOC)c1ncc(Cl)c(C(=O)c2c(C)cc3ccccn23)n1`, 25.1 µM [falling, single point]. To `O=C1CCNc2cc3ccccc3cc21` belongs 15.8 µM [falling, partial curve]. On to `Cc1nc(-n2nc(C)c(Cc3ccc(Cl)cc3)c2C)sc1C(=O)N1CCC(C)CC1`, for which the AC50 was 12.6 µM [falling, partial curve]. On to `CC(N=Cc1cccc(O)c1O)c1ccccc1` (configuration not stated), for which the AC50 is 6.31 µM [rising, single point] [measured here: IkB-luc green channel].

As for `CN(C)C(=O)CSc1cccc2cccnc12`, the concentration at half-maximal activity (AC50) is 7.94 µM [rising, full curve] [measured here: IkB-luc green channel]. `CCOc1ccc2nc(N(Cc3cccnc3)C(=O)c3cccs3)sc2c1`: the AC50 is 12.6 µM [falling, partial curve]. Turning to `COc1cccc(C(=O)Nc2nc(-c3nnn(-c4ccccc4C(F)(F)F)c3C)ns2)c1`, the concentration at half-maximal activity (AC50) was 15.8 µM [falling, partial curve]. `Cc1c(Cl)ccc2sc(N3CCN(C(=O)CCS(=O)(=O)c4ccc(F)cc4)CC3)nc12`: the AC50 was 31.6 µM [falling, single point]. For the compound `COc1ccc(-c2nc3ccccc3n2Cc2ccccc2)cc1`, the concentration at half-maximal activity (AC50) is 31.6 µM [falling, partial curve]. Consider `CC1=C(C(=O)Nc2ccccc2)C(c2ccccn2)n2nc(SCc3ccccc3)nc2N1` (configuration not stated), for which the half-maximal activity concentration (AC50) was 0.631 µM [falling, single point].

As for `Cc1ccc2c(c1)C(c1ccccc1)N(C(=O)COc1ccc(Cl)cc1Cl)CC(=O)N2` (configuration not stated), the concentration at half-maximal activity (AC50) is 10 µM [falling, partial curve]. To `COc1ccc(C)c2sc(NC(=O)c3ccc(S(=O)(=O)N4CCOCC4)cc3)nc12` belongs 10 µM [falling, partial curve, poor fit]. To `COc1ccc(C(=O)Oc2c(Sc3ccccc3)c(C)nn2-c2ccccc2)c(OC)c1` belongs 7.94 µM [falling, partial curve]; to `COc1cccc(N2CCN(C(=O)c3cnc4c(-c5ccc(F)cc5)c(C)nn4c3C)CC2)c1`, 31.6 µM [falling, single point]; to `COc1ccc(C2Nc3ccccc3-c3cc(C)nn32)c(OC)c1` (configuration not stated), 0.00631 µM [falling, full curve, poor fit]. To `CCOc1ccc(NC(=O)c2cc(-c3ccc(C)c(F)c3)on2)c([N+](=O)[O-])c1` belongs 1.26 µM [rising, full curve]; to `Cc1cccc(C)c1OCCn1c(CCNC(=O)C2CCCCC2)nc2ccccc21`, 25.1 µM [falling, partial curve]; to `Cc1ccc(NCc2nnc(SCCN3CCCCC3)n2CC2CCCO2)c(C)c1` (configuration not stated), 10 µM [falling, partial curve]. Take `CCN(CC)S(=O)(=O)c1ccc2c(c1)N(CC(=O)Nc1ccc(Cl)cc1)C(=O)C1CCCN21` (configuration not stated): the half-maximal activity concentration (AC50) was 15.8 µM [falling, partial curve]. To `CC(C)(C)c1ccc(C(=O)NCC(c2ccco2)S(=O)(=O)c2ccccc2)cc1` (configuration not stated) belongs 39.8 µM [falling, single point]; to `CCOC(=O)Cn1c(=O)c2c(nc(N3CCCCC3)n2Cc2ccccc2)n(C)c1=O`, 6.31 µM [falling, partial curve]. To `Cc1ccc(C)c(NC(=O)c2cc(S(=O)(=O)N3CCc4ccccc4C3)ccc2F)c1` belongs 0.316 µM [falling, full curve]; to `CCOc1ccc(N2C(=O)c3cccnc3C2Nc2ccc(Cl)cc2)cc1` (configuration not stated), 12.6 µM [falling, partial curve]; to `Fc1ccc(CNc2nc(-c3ccco3)cc(C(F)(F)F)n2)cc1`, 20 µM [falling, partial curve]. As for `O=C(CN1CCN(c2nc(-c3ccccc3)cs2)CC1)Nc1ccc2c(c1)OCO2`, the AC50 is 25.1 µM [falling, partial curve].

As to `COc1ccc(-c2noc(-c3ccccc3OCC(=O)Nc3ccc(C(C)=O)cc3)n2)cc1`, the AC50 is 31.6 µM [falling, single point]. Turning to `CC(C)Cn1c(SCC(=O)N2CCN(S(=O)(=O)c3ccccc3)CC2)nc2ccccc21`, the AC50 was 6.31 µM [falling, partial curve]. Regarding `COc1ccccc1NC(=O)Cn1c(=O)n(-c2ccccc2Cl)c(=O)c2sc3ccccc3c21`, the concentration at half-maximal activity (AC50) was 3.98 µM [falling, partial curve]. `O=C(CN1CCN(c2ccc(Cl)cc2)CC1)Nc1ccc(F)cc1`: the half-maximal activity concentration (AC50) is 12.6 µM [falling, partial curve]. In the case of `CCCCC(=O)Nc1nnc(S(=O)(=O)N2CCCCCC2)s1`, the AC50 is 2.51 µM [falling, partial curve].
